The other results are listed elsewhere or left out. Further columns of the screen follow, without active or inactive calls. Compounds called inactive in the main read-out are mostly missing here. Words in brackets tell the shape of the fitted curve; partial curves, single points and poor fits give uncertain potencies.
Assay: qHTS Assay to Find Inhibitors of Chronic Active B-Cell Receptor Signaling
Conditions: ABC-DLBCL IkBa-CBG/CBR reporter, luminescence ratio (green luciferase fused to IkBa over red control in TMD8 lymphoma cells), 4 h
Procedure, shortened: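 Concentration-response series (up to 46 uM) were applied to TMD8 dual-reporter cells for 4 h at 37C with doxycycline. Green/red ratio, after filter-overlap correction, defined %Activity; red signal alone was normalised to basal cells and zero luminescence.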

[1] = measured here: CBR red luminescence, cell number
[2] = measured here: IkBa-CBG green luminescence

Structure (SMILES)	AC50 [1]	AC50 [2]
Cc1sc(NC(=O)c2ccccc2)c(C(c2ccccn2)N2CCN(CCO)CC2)c1C (stereo unspecified)	1.84 µM [falling, full curve]	–
C/C(N)=C(/C#N)C(=O)COC(=O)CCS(=O)(=O)c1ccccc1	0.058 µM [falling, full curve, poor fit]	–
CCOC(=O)c1c(NC(=O)c2ccoc2C)sc(C)c1C	16.4 µM [rising, partial curve]	–
Cc1ccc(C2=NN3C(C(=O)c4ccccc4)Oc4ccccc4C3C2)cc1 (stereo unspecified)	14.6 µM [falling, partial curve]	–
COc1ccc(C(=O)C2CCCN(Cc3cn(C)nc3-c3ccccc3)C2)cc1F (stereo unspecified)	20 µM [falling, single point]	–
COC(=O)C(NC(=O)CCc1c(C)nc2ncnn2c1C)C(C)C (stereo unspecified)	17.8 µM [falling, single point]	–
O=C(Nc1ccccc1C(=O)O)c1ccc2c(c1)C(=O)N(c1cccc([N+](=O)[O-])c1)C2=O	3.98 µM [falling, full curve, poor fit]	–
S=c1[nH]nc(-c2cc(-c3ccccc3)n[nH]2)n1/N=C/c1c(Cl)cccc1Cl	5.01 µM [falling, full curve, poor fit]	–
COc1ccc(/C=N/NC(=O)c2ccccc2OCc2ccccc2)c(OC)c1	1.78 µM [falling, full curve, poor fit]	–
CCc1cc(C(=O)N2CCN(c3ccccn3)CC2)sc1C	3.16 µM [rising, partial curve, poor fit]	–
CCCCN1C(=O)/C(=C/C=C2/CC(C)(C)CN2C)SC1=S	2.91 µM [rising, single point]	–
COCCNC(=O)Cc1c(C)c2c(cc(C)c3c(C(C)(C)C)coc32)oc1=O	–	35.5 µM [falling, single point]
CSc1ccc2c(c1)C(N1CCN(C)CC1)Cc1ccccc1S2 (stereo unspecified)	8.91 µM [falling, partial curve]	35.5 µM [rising, partial curve, poor fit]
Cc1ccc(S(=O)(=O)N2[C@@H](c3ccc(C(C)(C)C)cc3)C(C(=O)O)=CC[C@H]2c2cccc(Cl)c2)cc1	29.1 µM [falling, single point]	–
Cc1ccc(Nc2cc(C)nc3ccc(C)cc23)cc1	6.31 µM [falling, full curve]	–
Cn1c(=O)c2c(SCC(=O)N3CCCc4ccccc43)nc(CC(C)(C)C)nc2n(C)c1=O	2.31 µM [rising, partial curve, poor fit]	–
CCOC(=O)C(NC(=O)c1cccnc1)(Nc1cccc(C)n1)C(F)(F)F (stereo unspecified)	20.6 µM [falling, single point]	–
COc1cccc(N2CCN(c3ccc([N+](=O)[O-])cn3)CC2)c1	17.8 µM [rising, partial curve, poor fit]	–
Cc1c(C(=O)NCc2cccs2)oc2ccc(Br)cc12	0.0651 µM [rising, full curve, poor fit]	–
O=C(N/N=C(\CC(=O)c1cccs1)C(F)(F)F)c1cccnc1	15.8 µM [falling, single point]	–
Cc1ccc(NC(=O)CCC(=O)NNS(=O)(=O)c2ccc(Cl)cc2)cc1C	1.12 µM [falling, full curve, poor fit]	–

Structure (SMILES)	AC50 [1]	AC50 [2]
O=C(NCc1nnnn1-c1ccc(F)c(F)c1)c1ccc(S(=O)(=O)N2CCOCC2)cc1	32.6 µM [falling, single point]	–
Fc1cccc(Cc2noc(CN3CCOCC3)n2)c1	22.4 µM [rising, single point]	–
Cc1c(C(=O)OC2CCCC2)[nH]c2c1C(=O)CC(c1ccco1)C2 (stereo unspecified)	7.31 µM [rising, partial curve]	–
COc1cc2c(cc1OC)CN(C(=O)CSc1n[nH]c(N)n1)CC2	6.51 µM [rising, single point]	–
Cc1cccc(NC(=O)CN(C)S(=O)(=O)c2cccs2)c1	7.31 µM [falling, single point]	–
Cc1cccc(C)c1NC(=O)CNC(=O)C(C)N1CCN(c2cccc(Cl)c2)CC1 (stereo unspecified)	1.64 µM [rising, full curve, poor fit]	–
COc1ccc(OC)c(CN2CCN(C(=O)CCC(=O)c3cccs3)CC2)c1	4.11 µM [rising, full curve]	–
Cc1ccc(C(=O)CSC2=C(C#N)C(c3ccco3)C3=C(CCCC3=O)N2)cc1 (stereo unspecified)	7.08 µM [falling, partial curve, poor fit]	–
O=C(NC(c1ccc(Cl)cc1)c1c(O)ccc2ccccc12)c1ccccc1 (stereo unspecified)	29.1 µM [falling, single point]	20.6 µM [rising, partial curve, poor fit]
O=C(NC1CCCC1)c1cccc2c1C(=O)c1ccc(N3CCCCC3)cc1S2(=O)=O	1.16 µM [falling, full curve]	–
COc1ccc(CCn2c(-c3ccccc3)nc3c(c(=O)c4ccccc4n3C)c2=O)cc1	25.9 µM [falling, single point]	–
Cc1sc2ncn(-c3ccccc3)c(=O)c2c1C	4.47 µM [rising, full curve, poor fit]	–
O=C(Nc1cccc(Cl)c1)c1cnc[nH]1	11.2 µM [falling, partial curve, poor fit]	–
COc1ccc(CCNC(=O)c2ccc(S(=O)(=O)N(C)c3ccccc3)cc2)cc1OC	20 µM [rising, single point]	–
Cc1cccc(C)c1NC(=O)c1sc(N)nc1-c1ccccc1	35.5 µM [rising, single point]	–
CCCc1cc(=O)[nH]c(SCCc2ccccc2)n1	15.8 µM [falling, single point]	–
O=C(Nc1ccccc1)c1ccc(Br)c(S(=O)(=O)N2CCCCC2)c1	–	15.8 µM [rising, partial curve, poor fit]
Cc1cc(O)c2c(c1O)C(=O)[C@]13C(=C2O)C(=O)[C@@H]2[C@@H](O)[C@H]1[C@@H]1[C@H](O)[C@H]3C(=O)C3=C(O)c4c(O)cc(C)c(O)c4C(=O)[C@]312	4.61 µM [falling, full curve]	–
COc1ccc(C(=O)N/N=C/c2ccc3cccc(OCc4ccccc4)c3n2)cc1	7.08 µM [falling, partial curve]	–
COc1ccc(-c2ccc(C#N)c(SCC(=O)Nc3sc4c(c3C#N)CCC4)n2)cc1OC	11.6 µM [rising, partial curve, poor fit]	–
N#C/C(=C/c1ccc([N+](=O)[O-])cc1)C(=O)Nc1ccccc1O	8.2 µM [falling, partial curve, poor fit]	–

Structure (SMILES)	AC50 [1]	AC50 [2]
Cc1ccc(-c2c(C)sc3nc[nH]c(=O)c23)cc1C	0.631 µM [falling, partial curve, poor fit]	–
COc1ccccc1/C=C1\SC(=S)N(Nc2nc(C)cc(C)n2)C1=O	0.891 µM [falling, full curve, poor fit]	–
COc1ccccc1-c1nnc(NC(=O)c2ccc(S(=O)(=O)N(C)CC3CCCO3)cc2)o1 (stereo unspecified)	8.91 µM [falling, partial curve]	–
Cc1c(N=C2N=C(NC(=O)c3ccc(F)cc3)c3ccccc32)c(=O)n(-c2ccccc2)n1C	15.8 µM [rising, partial curve, poor fit]	–
Cc1cc(-c2ccccc2)n(-c2ccccc2)n1	17.8 µM [rising, single point]	–
O=C(/C=C/c1cn(CC(O)CN2CCCCC2)c2ccccc12)c1cccs1 (stereo unspecified)	29.1 µM [falling, single point]	–
Cc1c(C(=S)Nc2ccccc2)cnn1-c1ccc([N+](=O)[O-])cc1	4.61 µM [rising, single point]	–
CC(=O)Nc1ccc(S(=O)(=O)Nc2nc3cc4c(cc3nc2Cl)OCCO4)cc1	11.2 µM [rising, single point]	–
Cc1ccc(SC/C(O)=C(\C#N)c2nc3ccccc3s2)cc1	2.31 µM [falling, full curve]	–
CCOC(=O)c1c(-c2cccs2)csc1NC(=O)CN(CC)CC	10 µM [rising, partial curve, poor fit]	–
CC(=O)Oc1c(/C=C(\C#N)C(N)=O)[nH]c2ccccc12	23.1 µM [falling, partial curve]	–
COc1cccc(C(=O)/C=C2\Sc3ccccc3N2C)c1	25.1 µM [falling, single point]	–
Cc1cc(C)nc(N/N=C/C(Cl)=C/c2ccccc2)n1	32.6 µM [falling, single point]	23.1 µM [rising, partial curve, poor fit]
O=C(N/N=C/c1ccco1)c1ccccc1OCc1ccc(Br)cc1	0.411 µM [rising, partial curve, poor fit]	–
O=C(Nc1ccc(-c2nc3cc(Cl)ccc3o2)cc1)C1CCCO1 (stereo unspecified)	1.64 µM [rising, full curve]	–
Cc1noc(C)c1CSc1nc2ccccc2c(=O)n1-c1ccccc1	11.2 µM [rising, partial curve]	7.08 µM [falling, partial curve]
O=C1OC2(c3ccccc31)c1cc(I)c(O)c(I)c1Oc1c2cc(I)c(O)c1I	9.2 µM [rising, partial curve]	11.6 µM [rising, partial curve, poor fit]
CC(=O)Nc1ccc2c(c1)CCCC2=O	31.6 µM [rising, single point]	–
CSC1=NCCN1C(=O)c1ccc(Br)o1	13 µM [falling, single point]	–

Two of the compounds above, as a markdown table:

| Structure (SMILES) | AC50 [1] | AC50 [2] |
| --- | --- | --- |
| CSc1ccc2c(c1)C(N1CCN(C)CC1)Cc1ccccc1S2 (stereo unspecified) | 8.91 µM [falling, partial curve] | 35.5 µM [rising, partial curve, poor fit] |
| Cc1ccc(S(=O)(=O)N2[C@@H](c3ccc(C(C)(C)C)cc3)C(C(=O)O)=CC[C@H]2c2cccc(Cl)c2)cc1 | 29.1 µM [falling, single point] | – |

— PubChem BioAssay AID493014 (National Center for Advancing Translational Sciences (NCATS), 2011)
